Measurements taken from publication PMC7819943, “Rice protein-binding microarrays: a tool to detect cis-acting elements near promoter regions in rice”.
The other results are listed elsewhere or left out.

The sequences below were run against T1, OsSMF1 (Oryza sativa, UniProt Q6ZLB0 1-436) (assay: protein-binding microarray (RPBM); PBS, 2% BSA, 51.3 ng/ul salmon testes DNA, 50 uM zinc acetate, 200 nM TF, 25 C, 1 h; high values mean tight binding). Conditions: protein: recombinant; tags: N-terminal polyhistidine and DsRed monomer fusion (pET32a); chain copies: 2; label: CyDye5-dUTP incorporated in the synthesized complementary strand; 3' TTTTT single-stranded linker to array surface; dsDNA, one strand shown.
T1 sequence: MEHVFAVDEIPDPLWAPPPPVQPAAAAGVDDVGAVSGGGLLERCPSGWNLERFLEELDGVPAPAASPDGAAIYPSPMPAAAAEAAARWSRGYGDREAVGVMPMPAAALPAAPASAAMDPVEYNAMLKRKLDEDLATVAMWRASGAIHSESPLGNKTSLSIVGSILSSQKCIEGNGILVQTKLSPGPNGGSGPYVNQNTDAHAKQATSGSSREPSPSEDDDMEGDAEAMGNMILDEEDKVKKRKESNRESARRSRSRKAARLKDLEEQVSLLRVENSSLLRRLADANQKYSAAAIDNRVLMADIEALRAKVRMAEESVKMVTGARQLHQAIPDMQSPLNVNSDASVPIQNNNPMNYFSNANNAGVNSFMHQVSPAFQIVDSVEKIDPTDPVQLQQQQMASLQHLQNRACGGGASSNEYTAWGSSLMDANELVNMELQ
Method in brief: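 An Axon 4000B scanner gave the binding signal as per-feature fluorescence intensity in arbitrary units. This followed washing of a custom Agilent array that had been incubated for 1 h at 25 °C with 200 nM protein in PBS, 2% BSA, salmon testes DNA and 50 µM zinc acetate. The proteins were transcription factors fused at the N-terminus to polyhistidine and DsRed, expressed in E. coli BL21-CodonPlus and purified on Ni–NTA.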

Q: For “GGTAATAGTGTCAACATATTGCATTAAGATGATTGCAGTGCGGAGTCACCTAGTGCAG”, which binding signal is on record?
A: 24300 fluorescence intensity (a.u.)

Q: Which binding signal does the source give for “ACACGAACCGCAGCCTCCCAGCCCACGCTACCTTGGCTACCGGAGTCACCTAGTGCAG” here?
A: 3330 fluorescence intensity (a.u.)

Q: For “ACTAGAGTACAGATGAACAGAGGGAACCATACAACCAGTCCGGAGTCACCTAGTGCAG”, which binding signal is on record?
A: 3990 fluorescence intensity (a.u.)

Q: For “GCGTCCACCTTCCTCGCCAACCACCTCATCACCATGTACTCGGAGTCACCTAGTGCAG”, which binding signal is on record?
A: 5060 fluorescence intensity (a.u.)

Q: For “CGGTATCGACGCAGCGTCTGAATGCAAGGGCCCGTGGTCACGGAGTCACCTAGTGCAG”, which binding signal is on record?
A: 27400 fluorescence intensity (a.u.)

Q: Which binding signal does the source give for “GACTGCCTCCGCAACGGCGCGTCCACGATCCCACGTTCCCCGGAGTCACCTAGTGCAG” here?
A: 3870 fluorescence intensity (a.u.)

Q: “ATGATTGTACTACTACTACCTGAATCTTGGAGTAGAGTTACGGAGTCACCTAGTGCAG” was tested. Which binding signal did it give?
A: 25700 fluorescence intensity (a.u.)

Q: For “AACACACCACTTGATCTCCACAAAGTCGACACGCAAGGTGCGGAGTCACCTAGTGCAG”, which binding signal is on record?
A: 6110 fluorescence intensity (a.u.)

Q: How did the binding signal turn out when “TTTGAAAGGAAGCAGCAAGCTTGTTGTTACTGCGTCAGTTCGGAGTCACCTAGTGCAG” was run?
A: 3680 fluorescence intensity (a.u.)

Q: Which binding signal does the source give for “GCCATTAGCGCTCCACGTGTCCTCTTAGGCACTTCACCAACGGAGTCACCTAGTGCAG” here?
A: 10600 fluorescence intensity (a.u.)

Q: Which binding signal does the source give for “GCTTTGTGTAAGTTGCTCTTAGTTGCGTAACTGCAAAAGTCGGAGTCACCTAGTGCAG” here?
A: 6780 fluorescence intensity (a.u.)

Q: For “CATGTCAAGAGACAATGGAATTGATGGCATCACGCATGGCCGGAGTCACCTAGTGCAG”, which binding signal is on record?
A: 3340 fluorescence intensity (a.u.)

Q: How did the binding signal turn out when “CAGCAGCAACGAAATCAGAACGAGGCGCAGGAAGAAGAAACGGAGTCACCTAGTGCAG” was run?
A: 28000 fluorescence intensity (a.u.)

Q: With “CGTTGGGCTCAAGGGGAGGGATATCTATCTAACAGTAACACGGAGTCACCTAGTGCAG” as the sequence, how does the binding signal read?
A: 4110 fluorescence intensity (a.u.)

Q: For “TAGCAGCCAAGAATAGCCAGCGACCAAACCTACGAGACGCCGGAGTCACCTAGTGCAG”, which binding signal is on record?
A: 3790 fluorescence intensity (a.u.)

Q: With “TGTTGTGCTTGCTGATGTGTTGGAAATTCCACCCTTTTGTCGGAGTCACCTAGTGCAG” as the sequence, how does the binding signal read?
A: 7560 fluorescence intensity (a.u.)

Q: How did the binding signal turn out when “AGAGTCAACCTGTCACGTCAGCAGAAACCGCTTCATAAGGCGGAGTCACCTAGTGCAG” was run?
A: 7190 fluorescence intensity (a.u.)

Q: Which binding signal does the source give for “GACGGCGGCCGCAGCAGGCTTGATGAGACGGAAGCTGCGGCGGAGTCACCTAGTGCAG” here?
A: 37700 fluorescence intensity (a.u.)

Q: With “CCGCAGTCGTGGCAACGCCGACATCCTCTTTTAGCCCACCCGGAGTCACCTAGTGCAG” as the sequence, how does the binding signal read?
A: 3420 fluorescence intensity (a.u.)

Q: “GGCACGTCAGTCGCCAAGGGTTCGGGAGATAAGAGGCCATCGGAGTCACCTAGTGCAG” was tested. Which binding signal did it give?
A: 3730 fluorescence intensity (a.u.)

Q: “GAAATGACATTTCAATTCATCTATTTATTAGCGGGAGTTGCGGAGTCACCTAGTGCAG” was tested. Which binding signal did it give?
A: 4570 fluorescence intensity (a.u.)

Q: With “GACTTCTTGTCAACGATGTGGGCACGTGGCCATGGAAAGTCGGAGTCACCTAGTGCAG” as the sequence, how does the binding signal read?
A: 6780 fluorescence intensity (a.u.)

Q: With “CTTCCGTTCTTCTCTTGTTTACCATATAAGGGCATGTACACGGAGTCACCTAGTGCAG” as the sequence, how does the binding signal read?
A: 3400 fluorescence intensity (a.u.)

Q: For “TCGATTCATTCGTTCCTTGGGTCGTGTCAGCATGGCCCATCGGAGTCACCTAGTGCAG”, which binding signal is on record?
A: 11100 fluorescence intensity (a.u.)

Q: Which binding signal does the source give for “ACTGTATGTGATGTGGATGATCTTGAAGATGTTGGGAGATCGGAGTCACCTAGTGCAG” here?
A: 4060 fluorescence intensity (a.u.)

Q: Which binding signal does the source give for “GTGAAGAAACCATATACATATTTTGGTTTATGTGTCACCTCGGAGTCACCTAGTGCAG” here?
A: 4980 fluorescence intensity (a.u.)

Q: Which binding signal does the source give for “GCCTCGCCTCGCCGCCGGCGGCCACCGTCTCCGCCGCCTCCGGAGTCACCTAGTGCAG” here?
A: 3410 fluorescence intensity (a.u.)

Q: How did the binding signal turn out when “CGATTAGTACTGAATGTACCACATCAGTTTGTTCGATATGCGGAGTCACCTAGTGCAG” was run?
A: 3850 fluorescence intensity (a.u.)

Q: “GTGATACCACGTATGATACCACGTAGATATCAGCTAGTTCCGGAGTCACCTAGTGCAG” was tested. Which binding signal did it give?
A: 9120 fluorescence intensity (a.u.)

Q: Which binding signal does the source give for “GGATTAGATACACTTCTCATCTGTCACTACTCTAAACTGTCGGAGTCACCTAGTGCAG” here?
A: 3140 fluorescence intensity (a.u.)

Q: With “CCATGGAAGCCTGACACGTGTACTCCGGTCACGCGCGTAGCGGAGTCACCTAGTGCAG” as the sequence, how does the binding signal read?
A: 14400 fluorescence intensity (a.u.)

Q: “TGACTAATACGCAGGGGAGCTCGCCGCCGCCGCCGCCGTCCGGAGTCACCTAGTGCAG” was tested. Which binding signal did it give?
A: 21600 fluorescence intensity (a.u.)

Q: For “CCCGCATCGCCTCCACCACTGCGGCCTTGCACCACCACCGCGGAGTCACCTAGTGCAG”, which binding signal is on record?
A: 26500 fluorescence intensity (a.u.)

Q: Which binding signal does the source give for “ACGCCGCTAGTTCTTTTCTCCAGAGCAATCTGGTCAGTTCCGGAGTCACCTAGTGCAG” here?
A: 59900 fluorescence intensity (a.u.)

Q: How did the binding signal turn out when “CCTCGCGCGGAGCCGTACCCACGTGCGCCCCACGCGTGCACGGAGTCACCTAGTGCAG” was run?
A: 3540 fluorescence intensity (a.u.)

Q: How did the binding signal turn out when “CTCCACCACCTGCGCGCCGCGGCCAGCGCCGCAGTAGACCCGGAGTCACCTAGTGCAG” was run?
A: 3480 fluorescence intensity (a.u.)

Q: How did the binding signal turn out when “CATATTCTGATATTCCCATCCACGTCAGCATTTCCCCACCCGGAGTCACCTAGTGCAG” was run?
A: 41000 fluorescence intensity (a.u.)

Q: How did the binding signal turn out when “TCTACCCGCTCCACGCCGCCTCGTCATCCCTTCATTACTACGGAGTCACCTAGTGCAG” was run?
A: 5230 fluorescence intensity (a.u.)

Q: “CATAACAGTTTTATGGCTATCATCAATTTTATTTTGTCCGCGGAGTCACCTAGTGCAG” was tested. Which binding signal did it give?
A: 3370 fluorescence intensity (a.u.)

Q: With “TTCTATATGTTTGTGACAGCACAAATAATATCTTGAGGATCGGAGTCACCTAGTGCAG” as the sequence, how does the binding signal read?
A: 3210 fluorescence intensity (a.u.)

Q: With “CTGCATTGTGGTTGATCCACGTCATCAAAATGAATGCCAGCGGAGTCACCTAGTGCAG” as the sequence, how does the binding signal read?
A: 12600 fluorescence intensity (a.u.)

Q: “CTGAGGCCTTTGGGCGCCACGCCACGCGATGCATGCTCGACGGAGTCACCTAGTGCAG” was tested. Which binding signal did it give?
A: 6920 fluorescence intensity (a.u.)
